Laboratory results published in article PMC5984089, “FBXW7 regulates DISC1 stability via the ubiquitin-proteosome system” (Molecular Psychiatry, 2017).
Results are given in words; binding and its absence hold for the method and conditions named. Binding can be weak; no strength is given.

Sequences of proteins named here, by UniProt entry; tags and fusion partners are left off. A change or cut given only in a name is not applied to a line headed by its entry.
UniProt Q9NRI5: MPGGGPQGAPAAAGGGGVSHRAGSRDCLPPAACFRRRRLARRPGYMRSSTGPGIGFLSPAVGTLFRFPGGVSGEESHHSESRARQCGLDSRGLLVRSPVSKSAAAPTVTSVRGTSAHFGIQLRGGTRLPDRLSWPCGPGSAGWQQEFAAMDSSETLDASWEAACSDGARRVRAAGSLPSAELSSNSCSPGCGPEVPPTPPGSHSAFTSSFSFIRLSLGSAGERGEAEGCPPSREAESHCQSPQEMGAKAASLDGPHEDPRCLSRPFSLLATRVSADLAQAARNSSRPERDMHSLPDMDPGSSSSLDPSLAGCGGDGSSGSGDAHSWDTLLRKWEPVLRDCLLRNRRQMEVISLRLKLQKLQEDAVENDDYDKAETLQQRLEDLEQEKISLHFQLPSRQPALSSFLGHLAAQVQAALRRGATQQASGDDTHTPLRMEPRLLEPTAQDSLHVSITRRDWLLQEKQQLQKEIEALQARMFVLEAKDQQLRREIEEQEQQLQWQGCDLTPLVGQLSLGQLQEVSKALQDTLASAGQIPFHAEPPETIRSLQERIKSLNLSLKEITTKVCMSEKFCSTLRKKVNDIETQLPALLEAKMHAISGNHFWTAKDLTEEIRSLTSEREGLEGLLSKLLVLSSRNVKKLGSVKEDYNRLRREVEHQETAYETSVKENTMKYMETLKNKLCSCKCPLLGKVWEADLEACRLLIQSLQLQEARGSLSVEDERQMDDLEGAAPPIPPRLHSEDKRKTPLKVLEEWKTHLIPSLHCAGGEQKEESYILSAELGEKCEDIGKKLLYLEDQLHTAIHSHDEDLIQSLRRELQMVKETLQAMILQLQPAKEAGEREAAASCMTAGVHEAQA

Target: Skp1-FBXW7 complex (human FBXW7 residues 263-707 with truncated Skp1, His6 tag cleaved)
Assay: crystal structure; Skp1-FBXW7 mixed with a twofold molar excess of the DISC1 peptide; crystallised from 100 mM HEPES-Na (pH 7.4), 1.2 M Li2SO4, hanging drop, 4 °C; one complex in the asymmetric unit; both purified

Binder: PEVPPTPPGSHSAFT (peptide, UniProt Q9NRI5 193-207, phosphothreonine at 198, phosphoserine at 202) [DISC1 peptide (residues 193-207, phosphorylated at Thr198 and Ser202)]
- binding: binds
